Reference: the supplement of paper PMC8728848
The other results are listed elsewhere or left out.

Columns and labels:
Experiment in all cases: glycan array binding signal (z-score within array); higher = stronger binding
Details in all cases: glycan notation: IUPAC condensed, linker removed
[1] = target: Neu5Ac(a2-6)Gal(b1-4)GlcNAc(b1-2)Man(a1-3)[Neu5Ac(a2-3)Gal(b1-4)GlcNAc(b1-2)Man(a1-6)]Man(b1-4)GlcNAc(b1-4)GlcNAc
Outline: (§1)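 Glycan array binding is given as a within-array Z-score, which can be read as non-binding when negative. The arrays, 3228 of them, came from the Consortium for Functional Glycomics database and were retained only where the protein sequence was available. Z-scores were averaged across arrays of the same protein sequence at different concentrations or buffers and across linkers.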

[2] = target: Neu5Ac(a2-6)Gal(b1-4)GlcNAc(b1-2)Man(a1-3)[Neu5Ac(a2-6)Gal(b1-4)GlcNAc(b1-2)Man(a1-6)]Man(b1-4)GlcNAc(b1-4)GlcNAc
Outline: as §1

[3] = target: Neu5Ac(a2-6)Gal(b1-4)GlcNAc(b1-2)Man(a1-3)[Neu5Ac(a2-6)Gal(b1-4)GlcNAc(b1-2)Man(a1-6)]Man(b1-4)GlcNAc(b1-4)[Fuc(a1-6)]GlcNAc
Outline: as §1

[4] = target: Neu5Ac(a2-6)Gal(b1-4)GlcNAc(b1-2)Man(a1-6)Man(b1-4)GlcNAc(b1-4)GlcNAc
Outline: as §1

[5] = target: Neu5Ac(a2-6)Gal(b1-4)GlcNAc(b1-2)Man(a1-6)[Gal(b1-4)GlcNAc(b1-2)Man(a1-3)]Man(b1-4)GlcNAc(b1-4)GlcNAc
Outline: as §1

[6] = target: Neu5Ac(a2-6)Gal(b1-4)GlcNAc(b1-2)Man(a1-6)[GlcNAc(b1-2)Man(a1-3)]Man(b1-4)GlcNAc(b1-4)GlcNAc
Outline: as §1

[7] = target: Neu5Ac(a2-6)Gal(b1-4)GlcNAc(b1-2)Man(a1-6)[Man(a1-3)]Man(b1-4)GlcNAc(b1-4)GlcNAc
Outline: as §1

[8] = target: Neu5Ac(a2-6)Gal(b1-4)GlcNAc(b1-2)[Neu5Ac(a2-6)Gal(b1-4)GlcNAc(b1-4)]Man(a1-3)[GlcNAc(b1-4)][Neu5Ac(a2-6)Gal(b1-4)GlcNAc(b1-2)[Neu5Ac(a2-6)Gal(b1-4)GlcNAc(b1-6)]Man(a1-6)]Man(b1-4)GlcNAc(b1-4)GlcNAc
Outline: as §1

[9] = target: Neu5Ac(a2-6)Gal(b1-4)GlcNAc(b1-2)[Neu5Ac(a2-6)Gal(b1-4)GlcNAc(b1-4)]Man(a1-3)[GlcNAc(b1-4)][Neu5Ac(a2-6)Gal(b1-4)GlcNAc(b1-4)Man(a1-6)]Man(b1-4)GlcNAc(b1-4)GlcNAc
Outline: as §1

[10] = target: Neu5Ac(a2-6)Gal(b1-4)GlcNAc(b1-2)[Neu5Ac(a2-6)Gal(b1-4)GlcNAc(b1-6)]Man(a1-6)[Neu5Ac(a2-6)Gal(b1-4)GlcNAc(b1-2)Man(a1-3)][GlcNAc(b1-4)]Man(b1-4)GlcNAc(b1-4)GlcNAc
Outline: as §1

[11] = target: Neu5Ac(a2-6)Gal(b1-4)GlcNAc(b1-3)Gal(b1-3)GlcNAc
Outline: as §1

[12] = target: Neu5Ac(a2-6)Gal(b1-4)GlcNAc(b1-3)Gal(b1-4)GlcNAc
Outline: as §1

[13] = target: Neu5Ac(a2-6)Gal(b1-4)GlcNAc(b1-3)Gal(b1-4)GlcNAc(b1-2)Man(a1-3)[Neu5Ac(a2-6)Gal(b1-4)GlcNAc(b1-3)Gal(b1-4)GlcNAc(b1-2)Man(a1-6)]GalNAc
Outline: as §1

[14] = target: Neu5Ac(a2-6)Gal(b1-4)GlcNAc(b1-3)Gal(b1-4)GlcNAc(b1-3)Gal(b1-4)GlcNAc
Outline: as §1

[15] = target: Neu5Ac(a2-6)Gal(b1-4)GlcNAc(b1-3)Gal(b1-4)GlcNAc(b1-3)Gal(b1-4)GlcNAc(b1-2)Man(a1-3)[Neu5Ac(a2-6)Gal(b1-4)GlcNAc(b1-3)Gal(b1-4)GlcNAc(b1-3)Gal(b1-4)GlcNAc(b1-2)Man(a1-6)]GalNAc
Outline: as §1

[16] = target: Neu5Ac(a2-6)Gal(b1-4)GlcNAc(b1-3)Gal(b1-4)GlcNAc(b1-3)GalNAc
Outline: as §1

[17] = target: Neu5Ac(a2-6)Gal(b1-4)GlcNAc(b1-3)Gal(b1-4)GlcNAc(b1-3)[Neu5Ac(a2-6)Gal(b1-4)GlcNAc(b1-3)Gal(b1-4)GlcNAc(b1-6)]GalNAc
Outline: as §1

[18] = target: Neu5Ac(a2-6)Gal(b1-4)GlcNAc(b1-3)Gal(b1-4)GlcNAc(b1-6)[Gal(b1-3)]GalNAc
Outline: as §1

[19] = target: Neu5Ac(a2-6)Gal(b1-4)GlcNAc(b1-3)Gal(b1-4)[Fuc(a1-3)]GlcNAc(b1-3)Gal(b1-4)[Fuc(a1-3)]GlcNAc
Outline: as §1

[20] = target: Neu5Ac(a2-6)Gal(b1-4)GlcNAc(b1-3)GalNAc
Outline: as §1

[21] = target: Neu5Ac(a2-6)Gal(b1-4)GlcNAc(b1-3)[Neu5Ac(a2-6)Gal(b1-4)GlcNAc(b1-6)]GalNAc
Outline: as §1

[22] = target: Neu5Ac(a2-6)Gal(b1-4)GlcNAc(b1-6)GalNAc
Outline: as §1

[23] = target: Neu5Ac(a2-6)Gal(b1-4)GlcNAc(b1-6)[Gal(b1-3)GlcNAc(b1-3)]Gal(b1-4)Glc
Outline: as §1

[24] = target: Neu5Ac(a2-6)Gal(b1-4)GlcNAc(b1-6)[Gal(b1-3)]GalNAc
Outline: as §1

[25] = target: Neu5Ac(a2-6)Gal(b1-4)GlcNAc6S
Outline: as §1

[26] = target: Neu5Ac(a2-6)GalNAc
Outline: as §1

[27] = target: Neu5Ac(a2-6)GalNAc(b1-4)GlcNAc
Outline: as §1

[28] = target: Neu5Ac(a2-6)GalNAc(b1-4)GlcNAc6S
Outline: as §1

[29] = target: Neu5Ac(a2-6)GlcNAc(b1-4)GlcNAc
Outline: as §1

[30] = target: Neu5Ac(a2-6)GlcNAc(b1-4)GlcNAc(b1-4)GlcNAc
Outline: as §1

B1: Blon0732mut (Bifidobacterium longum) (protein)
chain: MPTSEHKADDATRHLTLIPAPVTLEYTHGTALIGPLVTIEDADQSWETLPIEQLSDELRHRYGVTVLRRRTHGTVISLGLDSRLAHDEYTLDVSESEGIRVRGGGESGLRYGLQTLRQIIGQTSRAIPCLHIQDKPAFAVRAYSLDVTRGRVPTMEFLTWFVDQLALYKYNQFQLYVEHAFAFVELSEAWRGTDPLTAADITYLDEYCARRGIELVPSLATFGHMYMNLRTREHRGLGEFPEDADRPFSFIERMEHHTLNAADPKAHDFASRLIEEYAPLFRSKSFNIGGNETFDLGRGRSAQDAPEAGRDELYAGFVRDLCETLARHGRQPMLWADIALESPRTMDLLPGDITMLNWMYEPQIDESKIQTIATQGRRQFVCPAVRAWSRFFPDYAGAWLNTYHMALAGTKYDAEGMVVTDWGDYGHVNDPRLSVPGLCYGAQNAWNPIEIDAHEMNRRISALVYGDESGRIMDCLARIDSDGVSFPWDLAVQVLELEYGSGTGALNMDVAACMERSSGGKLTLDRTLGCDDARRRMLQWNRERIERRRDCDQVLRDCGDAFAGLDKGGLTAEFLSVMLDGQRLFNELGEELLALADGKDVGSGANRLAADLELWFERYRAQWLSVGRHAELARIAHVVWSLADILRRGAL
glycan array binding signal (z-score) [1]: 0.194
glycan array binding signal (z-score) [2]: 0.107
glycan array binding signal (z-score) [3]: 0.382
glycan array binding signal (z-score) [4]: -0.639
glycan array binding signal (z-score) [5]: -0.7
glycan array binding signal (z-score) [6]: 0.435
glycan array binding signal (z-score) [7]: -1.08
glycan array binding signal (z-score) [8]: -0.469
glycan array binding signal (z-score) [9]: -0.948
glycan array binding signal (z-score) [10]: -0.827
glycan array binding signal (z-score) [11]: -0.499
glycan array binding signal (z-score) [12]: -1.14
glycan array binding signal (z-score) [13]: 0.56
glycan array binding signal (z-score) [14]: -1.1
glycan array binding signal (z-score) [15]: -0.371
glycan array binding signal (z-score) [16]: -0.725
glycan array binding signal (z-score) [17]: 1.06
glycan array binding signal (z-score) [18]: -0.853
glycan array binding signal (z-score) [19]: 2.6
glycan array binding signal (z-score) [20]: 1.11
glycan array binding signal (z-score) [21]: -0.111
glycan array binding signal (z-score) [22]: 0.599
glycan array binding signal (z-score) [23]: -0.702
glycan array binding signal (z-score) [24]: 0.982
glycan array binding signal (z-score) [25]: -0.982
glycan array binding signal (z-score) [26]: -0.848
glycan array binding signal (z-score) [27]: 0.695
glycan array binding signal (z-score) [28]: -0.881
glycan array binding signal (z-score) [29]: -0.729
glycan array binding signal (z-score) [30]: 0.177
